The results in this text go back to paper PMC2999422.

By UniProt entry, the sequences of proteins in these tests, tags left out.
UniProt O14980: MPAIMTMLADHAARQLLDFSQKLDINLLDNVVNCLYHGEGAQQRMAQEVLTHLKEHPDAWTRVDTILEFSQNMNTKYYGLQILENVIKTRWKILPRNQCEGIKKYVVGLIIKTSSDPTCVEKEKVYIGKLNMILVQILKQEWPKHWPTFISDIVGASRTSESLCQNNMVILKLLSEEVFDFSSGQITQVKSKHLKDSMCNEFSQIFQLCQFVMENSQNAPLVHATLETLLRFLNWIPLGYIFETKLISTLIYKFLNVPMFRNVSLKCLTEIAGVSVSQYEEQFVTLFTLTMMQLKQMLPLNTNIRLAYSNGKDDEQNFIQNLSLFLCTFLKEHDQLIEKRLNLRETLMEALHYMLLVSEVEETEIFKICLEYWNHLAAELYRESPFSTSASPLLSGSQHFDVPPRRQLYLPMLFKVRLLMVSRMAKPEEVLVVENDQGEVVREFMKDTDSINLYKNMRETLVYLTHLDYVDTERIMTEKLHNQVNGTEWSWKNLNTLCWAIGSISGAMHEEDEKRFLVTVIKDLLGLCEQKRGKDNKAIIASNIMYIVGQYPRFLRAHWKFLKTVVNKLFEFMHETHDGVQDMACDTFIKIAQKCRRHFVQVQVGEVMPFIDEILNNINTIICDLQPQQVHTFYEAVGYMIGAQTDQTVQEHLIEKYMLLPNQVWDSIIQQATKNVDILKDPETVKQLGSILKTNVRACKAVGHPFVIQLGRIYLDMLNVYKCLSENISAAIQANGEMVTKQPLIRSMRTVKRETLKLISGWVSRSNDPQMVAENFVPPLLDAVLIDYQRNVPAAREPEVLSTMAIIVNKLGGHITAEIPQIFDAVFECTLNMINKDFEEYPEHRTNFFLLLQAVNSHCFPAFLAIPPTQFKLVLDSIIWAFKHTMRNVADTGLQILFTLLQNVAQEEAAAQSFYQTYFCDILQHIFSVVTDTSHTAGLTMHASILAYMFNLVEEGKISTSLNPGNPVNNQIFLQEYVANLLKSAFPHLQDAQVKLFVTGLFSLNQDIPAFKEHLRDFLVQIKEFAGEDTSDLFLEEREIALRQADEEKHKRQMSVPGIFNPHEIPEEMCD

Read-outs that look alike come from different tables or passages of the source. No constants are given. Whether binding was seen depends on the method and setting. For some of these results: In cells and extracts the contact can be indirect. Some entries that bind do so weakly or less than the wild type.

In assay [1] the target is T1, Ultraspiracle (Usp) (UniProt P20153).
T1 sequence: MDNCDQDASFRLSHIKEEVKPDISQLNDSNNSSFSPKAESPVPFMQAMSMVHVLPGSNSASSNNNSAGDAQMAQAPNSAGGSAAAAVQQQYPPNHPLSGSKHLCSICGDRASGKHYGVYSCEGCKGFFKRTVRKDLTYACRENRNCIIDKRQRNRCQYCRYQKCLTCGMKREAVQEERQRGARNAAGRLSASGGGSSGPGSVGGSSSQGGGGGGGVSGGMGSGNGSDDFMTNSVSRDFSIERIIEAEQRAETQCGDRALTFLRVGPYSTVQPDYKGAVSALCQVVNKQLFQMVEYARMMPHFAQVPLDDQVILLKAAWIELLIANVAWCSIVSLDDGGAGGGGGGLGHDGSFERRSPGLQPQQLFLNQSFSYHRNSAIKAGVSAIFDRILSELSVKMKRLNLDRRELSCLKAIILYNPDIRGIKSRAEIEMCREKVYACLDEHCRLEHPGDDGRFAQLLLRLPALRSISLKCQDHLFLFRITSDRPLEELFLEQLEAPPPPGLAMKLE
The assay can be described thus: co-IP; co-immunoprecipitation of EcR and Usp with transport proteins in vertebrate cell lines that do not contain endogenous EcR and Usp; EcR and Usp expressed alone or together.

Assay [2] concerns the target T2, ecdysteroid receptor (EcR) (UniProt P34021).
T2 sequence: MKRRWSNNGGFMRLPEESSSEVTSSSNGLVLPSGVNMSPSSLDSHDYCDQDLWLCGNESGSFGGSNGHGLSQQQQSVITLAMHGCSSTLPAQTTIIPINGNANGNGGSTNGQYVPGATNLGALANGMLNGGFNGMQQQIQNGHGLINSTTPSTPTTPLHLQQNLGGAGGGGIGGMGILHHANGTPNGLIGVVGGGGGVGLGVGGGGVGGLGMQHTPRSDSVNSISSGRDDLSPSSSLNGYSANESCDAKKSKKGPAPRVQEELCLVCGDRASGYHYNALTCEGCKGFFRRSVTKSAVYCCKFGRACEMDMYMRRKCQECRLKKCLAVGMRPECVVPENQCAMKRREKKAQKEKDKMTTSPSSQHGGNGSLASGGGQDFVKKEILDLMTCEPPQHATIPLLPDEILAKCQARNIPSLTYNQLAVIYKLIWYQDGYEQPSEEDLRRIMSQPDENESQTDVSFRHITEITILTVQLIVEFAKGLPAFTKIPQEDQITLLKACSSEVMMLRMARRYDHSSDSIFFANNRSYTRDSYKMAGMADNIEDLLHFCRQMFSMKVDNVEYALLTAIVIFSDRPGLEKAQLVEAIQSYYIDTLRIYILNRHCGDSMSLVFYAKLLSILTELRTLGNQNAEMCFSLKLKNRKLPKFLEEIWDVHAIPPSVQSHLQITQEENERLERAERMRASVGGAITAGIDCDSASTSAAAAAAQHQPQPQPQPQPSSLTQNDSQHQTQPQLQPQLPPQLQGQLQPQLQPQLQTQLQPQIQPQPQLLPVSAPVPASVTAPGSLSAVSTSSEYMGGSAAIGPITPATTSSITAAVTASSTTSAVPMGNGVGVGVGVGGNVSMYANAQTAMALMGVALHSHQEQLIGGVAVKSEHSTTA
The assay is described as above.

Assay [3] concerns the target T3, NHR-25 (C. elegans) (UniProt Q19345).
T3 sequence: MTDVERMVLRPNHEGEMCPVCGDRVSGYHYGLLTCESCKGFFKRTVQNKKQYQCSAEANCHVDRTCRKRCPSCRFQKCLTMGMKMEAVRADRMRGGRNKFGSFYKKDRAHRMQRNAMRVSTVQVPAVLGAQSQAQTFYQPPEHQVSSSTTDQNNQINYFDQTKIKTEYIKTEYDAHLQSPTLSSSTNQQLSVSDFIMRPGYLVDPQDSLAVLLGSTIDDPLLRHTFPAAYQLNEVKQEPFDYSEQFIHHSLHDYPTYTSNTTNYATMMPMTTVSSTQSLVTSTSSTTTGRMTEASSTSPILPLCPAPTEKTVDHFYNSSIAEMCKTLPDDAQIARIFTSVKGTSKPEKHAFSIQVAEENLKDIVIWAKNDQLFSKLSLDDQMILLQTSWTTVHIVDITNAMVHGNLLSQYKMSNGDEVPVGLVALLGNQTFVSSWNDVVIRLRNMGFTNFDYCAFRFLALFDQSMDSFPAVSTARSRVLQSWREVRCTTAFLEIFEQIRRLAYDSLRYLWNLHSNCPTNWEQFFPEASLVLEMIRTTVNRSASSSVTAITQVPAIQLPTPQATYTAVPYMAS
The assay can be described thus: two-hybrid; yeast two-hybrid; no further details.

Assay [4] deals with T3, NHR-25 (C. elegans). The assay is described as follows: pull-down; GST pulldown; which partner carried GST is not told.
Assay [5] deals with T3, NHR-25 (C. elegans). The assay is described as follows: co-IP; co-immunoprecipitation, named together with cell transfection techniques; no further details.
In assay [6] the target is T2, ecdysteroid receptor (EcR). The assay is described as follows: co-IP; co-immunoprecipitation of EcR and Usp with transport proteins in vertebrate cell lines that do not contain endogenous EcR and Usp; EcR and Usp expressed alone or together. This is another data set of the same source.
Assay [7] deals with T4, MHR3 (Manduca sexta) (UniProt Q08882).
T4 sequence: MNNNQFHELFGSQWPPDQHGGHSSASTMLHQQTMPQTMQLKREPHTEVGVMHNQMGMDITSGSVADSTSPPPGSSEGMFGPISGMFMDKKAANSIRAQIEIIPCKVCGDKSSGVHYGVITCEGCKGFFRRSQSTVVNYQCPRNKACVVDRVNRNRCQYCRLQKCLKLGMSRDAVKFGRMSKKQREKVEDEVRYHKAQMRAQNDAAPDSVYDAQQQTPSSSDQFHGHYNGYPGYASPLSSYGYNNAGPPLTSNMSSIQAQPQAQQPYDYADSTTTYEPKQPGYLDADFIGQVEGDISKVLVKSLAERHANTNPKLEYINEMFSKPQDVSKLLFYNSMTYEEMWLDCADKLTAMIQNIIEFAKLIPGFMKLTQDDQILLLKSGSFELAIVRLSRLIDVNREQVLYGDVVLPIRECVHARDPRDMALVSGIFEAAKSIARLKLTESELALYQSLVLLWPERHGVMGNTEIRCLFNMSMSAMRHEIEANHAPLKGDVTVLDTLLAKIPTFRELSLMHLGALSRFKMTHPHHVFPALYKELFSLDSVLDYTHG
The assay can be described thus: two-hybrid; BacterioMatch II two-hybrid assay.

As for “exportin-1 / CRM1 (from UniProt O14980 1-1071)”, the binding result in assay [1] was “no binding”; in assay [2] it was “binds”.

B1: WRM-1 (protein, UniProt Q10953 1-796)
chain: MDVDCAETFSQPCTPLNFNPMTPSTSRVSTPVRPSSTMSARQYSGSPFKAQPQNMEPSNSRVQELREAAVGKRSYTNAWMQGTYAPPQMAGQQQRFSRPPSVIGSTMSHMTNMSEMTAYSYGGLSMLSVNTEMGEFNNFVNQAPYQRALTRVSQVSENQDPTNRQYPMTAPEIIENLESTELINQAAAIRALEPIVKAGGMLQTWGPKGAEPIIRALFQVLIPRPVENENVIRKAFEILHHSILLSNKEIRRIDRMFFRLNAALMDPNGPPVFNVPKPYSIYEIVMTRAIQLDTKFESSAMVLLVHLCCKPHFMKIFFGEDETQQSPAHRRLHKIVIEFAIGNLRRPETKSKNKGLCVSIIKNLSNKNATIKDMSERLGVVSLFHQIMQNEVIHEDLLWSTMQALTVFCGDVKNGTHFVQMGGAQVLCGLLSHGSTRLLHELLKCLRRVSDLPAIQEQDMKESIHCIVQLIGCSDVTIVELATGTLRNIGLHNKMNKAFMVQDGVTSHAIAVLRTSEQFTYQPHANIDLYRKQILSIYENCLSVLNNVTSMAPQDIKESAVSACRMISENADSAYVLLHYFNVGNRKCRKLAVTVMKRVIETVPAFADPFVDLLGTTNEPLPILLLQRAFQSLDEWRKTSVEMMNCDGRSAEQRRELDDRRKDHEDIVKRSVGLLTNLCSQANPRFFHSLKLVLTNGTLNPFQWLTHEMSDGILQEWLAFILSICSRDESLQTFMMYRFLEQAKMTEAFFAELKARRQNSNIQTMLSKIIDLGRHQQRIVSQQHQQHQMQHHRQLM
As for B1, the binding result in assay [3], in assay [4] and in assay [5] was “binds” in each case.

B2: Ultraspiracle (Usp) (receptor, UniProt P20153 1-508)
chain: T1 sequence
As for B2, in assay [6], the binding result is given as “binds”.

B3: E75B (receptor, UniProt Q08893-2 1-685)
chain: MVRAMSCGAELRERHSVLVSMLEARRESSDSGCSSDDGSDVERDCKCRCDPQGFFRRSIQQKIQYRPCTKNQQCSILRINRNRCQYCRLKKCIAVGMSRDAVRFGRVPKREKARILAAMQQSSTSRAHEQAAAAELDDAPRLLARVVRAHLDTCEFTRDRVAAMRARARDCPTYSQPTLACPLNPAPELQSEKEFSQRFAHVIRGVIDFAGLIPGFQLLTQDDKFTLLKSGLFDALFVRLICMFDAPLNSIICLNGQLMKRDSIQSGANARFLVDSTFKFAERMNSMNLTDAEIGLFCAIVLITPDRPGLRNVELVERMHTRLKACLQTVIAQNRPDRPGFLRELMDTLPDLRTLSTLHTEKLVVFRTEHKELLRQQMWSEEEAVSWVDSGADELARSPIGSVSSSESGEAVGDCGTPLLAATLAGRRRLDSRGSVDEEALGVAHLAHNGLTVTPVRQPPRYRKLDSPTDSGIESGNEKHERIVGTGSGCSSPRSSLEEHNEDRRPPVSADDMPVLKRVLQAPPLYGGTPSLMDEAYRRHKKFRALRRDTGEAEARTVRPTPSPQPQHPHPANPAHPAHSPRPQRASLSSTHSVLAKSLMEGPRMTPEQLKRTDIIQQYMRRGESSAPAEGCPLRAGGLLTCYRGASPAPQPVLALQVDVTDAPLNLSKKSPSPPRTYMPQMLEA
For B3, in assay [7], the binding result is given as “binds”.

B4: SYS-1 (protein, UniProt Q9XVI2 1-811)
chain: MHSTGEPQRGPAGPYHHPMPYHVDQIPTTSHPSWHQAPHPGLPTPPYHPQQHPNYISMQPPPSQQQQMTPQALSTQQQQQVQQQQQRQLYSSPSPSRGPAAPAQNQKFRTEQWINNQAWPYSQSPAPPVAPSVMSYHQGDDRMSMLSVNTTMTNQFPDSQRCYSSNGSTCENVNPEMMQMNITQAAEQAIRLWFNTPDPMQRLHMAKTIRTWIRQDKFAQVDQANMPNCVQQILNIIYDGLKPQPVQLPISYYAQLWYNLLDILRRFTFLPIISPYIHQVVQMFCPRENGPQDFRELICNLISLNWQKDPHMKHCANQVFQIFNCIIMGVKNEKLRTEFAQHLKFEKLVGTLSEYFNPQVHPGMINPAIFIIFRFIISKDTRLKDYFIWNNNPHDQPPPPTGLIIKLNAVMIGSYRLIAGQNPETLPQNPELAHLIQVIIRTFDLLGLLLHDSDAIDGFVRSDGVGAITTVVQYPNNDLIRAGCKLLLQVSDAKALAKTPLENILPFLLRLIEIHPDDEVIYSGTGFLSNVVAHKQHVKDIAIRSNAIFLLHTIISKYPRLDELTDAPKRNRVCEIICNCLRTLNNFLMMWIPTPNGETKTAGPNEKQQVCKFIEIDILKKLMSCLSCEGMDTPGLLELRSTILRSFILLLRTPFVPKDGVLNVIDENRKENLIGHICAAYSWVFRQPNNTRTQSTKQQLVERTISLLLVLMEQCGAEKEVAQYSYSIDCPLNLLNGNQVKPTFIHNVLVVCDKILEHCPTRADIWTIDRPMLEGLTNHRNSDIAKAANSLLSRFPENDLLAGIFSNREYF
B4: the binding entry in assay [3], in assay [4] and in assay [5] was “binds” throughout.
